PubChem BioAssay AID504786 – Drosophila RNAi Screening Center | 2011
The screen tested about 21,000 reagents; below is a random part of those that have a named target and a result. 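Primary screen; positive scores mean lost reporter signal, so the sign may be inverted from the usual convention.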 Further read-outs or replicates are left out here. Reagent sequences are not shown.

- Test: 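Knock-downs reducing HIF reporter induction by the iron chelator DFO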 (primary screen)
- Cells: Drosophila S2 cells with a stable HIF luciferase reporter
- Reagents: long dsRNA against Drosophila genes, about 0.2 µg dsRNA per well of a 384-well plate
- Duration: three days of knock-down, then 20 h of DFO before reading
- Treatment: desferrioxamine (DFO) at 100 µM, an iron chelator that mimics hypoxia, for 20 h
- Read-out: 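HIF reporter luminescence in cells given 100 µM DFO for 20 h, using the mouse ldh-a hypoxia-response element, scored as per-plate z-scores; higher means greater loss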
- Direction: z-score: higher = stronger loss of HIF reporter signal

With knock-down of CtsK2 (Cathepsin K2) [DRSC06897], the screen gave z-score, replicate 1 = -0.3.
For CG15814 [DRSC19730] the deposit lists z-score, replicate 1 = -0.2.
CG13051 [DRSC09932] scored z-score, replicate 1 = -0.4.
Depletion of Cyp28c1 (Cytochrome P450 28c1) [DRSC20236] came out at: z-score, replicate 1 = -0.1.
Silencing of CG12341 [DRSC06133] resulted in: z-score, replicate 1 = -0.1.
Against ec (echinus) [DRSC17285], the values are z-score, replicate 1 = 0.3.
ec (echinus) [DRSC17286] showed z-score, replicate 1 = -0.1.
Silencing of ec (echinus) [DRSC18658] came out at: z-score, replicate 1 = -0.4.
For GstE10 (Glutathione S transferase E10) [DRSC06671] the deposit lists z-score, replicate 1 = 0.
With knock-down of piwi (P-element induced wimpy testis) [DRSC03592], the record shows z-score, replicate 1 = -0.3.
CG14106 [DRSC10109] gave z-score, replicate 1 = -0.3.
CG10918 [DRSC20472] scored z-score, replicate 1 = 0.6.
After knock-down of CG14443 [DRSC17936], the screen gave z-score, replicate 1 = -0.3.
After knock-down of CCT5 (Chaperonin containing TCP1 subunit 5) [DRSC07357], the record shows z-score, replicate 1 = 0.8.
Silencing of CG31882 [DRSC01084] resulted in: z-score, replicate 1 = -0.7.
Against l(3)04053 (lethal (3) 04053) [DRSC11640] the deposit lists z-score, replicate 1 = -0.3.
Against CG12998 [DRSC19518], the values are z-score, replicate 1 = -0.4.
Silencing of CG30394 [DRSC04074] gave: z-score, replicate 1 = -0.1.
CG30394 [DRSC04260] gave z-score, replicate 1 = -0.3.
For CG42750 [DRSC02458], the values are z-score, replicate 1 = -0.2.
For CG42750 [DRSC03019], the entry reads z-score, replicate 1 = 0.5.
For CG42750 [DRSC03024], the entry reads z-score, replicate 1 = -0.2.
Knock-down of Or33a (Odorant receptor 33a) [DRSC03386] came out at: z-score, replicate 1 = -0.2.
Against CG13097 [DRSC02199], the entry reads z-score, replicate 1 = -0.2.
For onecut [DRSC17175], the values are z-score, replicate 1 = -0.3.

Reprinted from the listing, 5 entries:
piwi (P-element induced wimpy testis) [DRSC03592] — z-score, replicate 1: -0.3
CG14106 [DRSC10109] — z-score, replicate 1: -0.3
CG10918 [DRSC20472] — z-score, replicate 1: 0.6
CG14443 [DRSC17936] — z-score, replicate 1: -0.3
CCT5 (Chaperonin containing TCP1 subunit 5) [DRSC07357] — z-score, replicate 1: 0.8

Further records follow.
After knock-down of Cpr76Bd (Cuticular protein 76Bd) [DRSC11063], the record shows z-score, replicate 1 = -0.1.
Knock-down of CG34015 [DRSC19140] gave: z-score, replicate 1 = -0.5.
Depletion of CG44774 [DRSC18342] gave: z-score, replicate 1 = -0.1.
fax (failed axon connections) [DRSC11345] showed z-score, replicate 1 = -0.4.
Knock-down of CG2841 [DRSC17699] gave: z-score, replicate 1 = 0.1.
Against CG2841 [DRSC18824], the entry reads z-score, replicate 1 = -0.2.
With knock-down of CG32170 [DRSC09452], the screen gave z-score, replicate 1 = 0.1.
CG14075 [DRSC10080] scored z-score, replicate 1 = -0.3.
For CG1698 [DRSC06640] the deposit lists z-score, replicate 1 = -0.4.
Rac1 [DRSC08688] showed z-score, replicate 1 = 0.6.
Depletion of Rga (Regena) [DRSC12364] came out at: z-score, replicate 1 = -0.7.
Tlk (Tousled-like kinase) [DRSC17731] gave z-score, replicate 1 = -0.5.
With knock-down of Tlk (Tousled-like kinase) [DRSC17835] the results were z-score, replicate 1 = 2.4.
Knock-down of CG1463 [DRSC19603] came out at: z-score, replicate 1 = -0.1.
For eff (effete) [DRSC16940], the entry reads z-score, replicate 1 = 2.2.
